These are yes or no findings as the source states them, for the method shown. Binding seen in cells or lysates may run through a third protein. A yes stands for co-enrichment or nearness to the bait. Other partners may have been found. For some of these results: Tags and fused reporters may be left off the sequences shown.

The chains behind the UniProt entries cited, without tags or fusion partners.
UniProt Q9BYI3: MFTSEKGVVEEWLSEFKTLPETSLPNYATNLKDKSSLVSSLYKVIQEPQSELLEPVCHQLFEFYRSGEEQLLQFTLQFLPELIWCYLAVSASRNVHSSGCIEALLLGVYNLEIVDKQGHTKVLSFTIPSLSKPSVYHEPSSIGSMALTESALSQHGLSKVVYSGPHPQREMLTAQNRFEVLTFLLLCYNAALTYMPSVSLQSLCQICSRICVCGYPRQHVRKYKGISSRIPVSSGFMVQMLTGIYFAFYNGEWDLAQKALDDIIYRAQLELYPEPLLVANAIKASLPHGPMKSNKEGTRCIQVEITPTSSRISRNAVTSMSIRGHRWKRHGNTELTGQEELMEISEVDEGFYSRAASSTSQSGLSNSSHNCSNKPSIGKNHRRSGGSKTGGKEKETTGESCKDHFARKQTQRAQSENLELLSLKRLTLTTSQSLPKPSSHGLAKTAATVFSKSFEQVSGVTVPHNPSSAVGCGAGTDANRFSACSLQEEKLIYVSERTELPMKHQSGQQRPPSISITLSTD
UniProt Q86W92: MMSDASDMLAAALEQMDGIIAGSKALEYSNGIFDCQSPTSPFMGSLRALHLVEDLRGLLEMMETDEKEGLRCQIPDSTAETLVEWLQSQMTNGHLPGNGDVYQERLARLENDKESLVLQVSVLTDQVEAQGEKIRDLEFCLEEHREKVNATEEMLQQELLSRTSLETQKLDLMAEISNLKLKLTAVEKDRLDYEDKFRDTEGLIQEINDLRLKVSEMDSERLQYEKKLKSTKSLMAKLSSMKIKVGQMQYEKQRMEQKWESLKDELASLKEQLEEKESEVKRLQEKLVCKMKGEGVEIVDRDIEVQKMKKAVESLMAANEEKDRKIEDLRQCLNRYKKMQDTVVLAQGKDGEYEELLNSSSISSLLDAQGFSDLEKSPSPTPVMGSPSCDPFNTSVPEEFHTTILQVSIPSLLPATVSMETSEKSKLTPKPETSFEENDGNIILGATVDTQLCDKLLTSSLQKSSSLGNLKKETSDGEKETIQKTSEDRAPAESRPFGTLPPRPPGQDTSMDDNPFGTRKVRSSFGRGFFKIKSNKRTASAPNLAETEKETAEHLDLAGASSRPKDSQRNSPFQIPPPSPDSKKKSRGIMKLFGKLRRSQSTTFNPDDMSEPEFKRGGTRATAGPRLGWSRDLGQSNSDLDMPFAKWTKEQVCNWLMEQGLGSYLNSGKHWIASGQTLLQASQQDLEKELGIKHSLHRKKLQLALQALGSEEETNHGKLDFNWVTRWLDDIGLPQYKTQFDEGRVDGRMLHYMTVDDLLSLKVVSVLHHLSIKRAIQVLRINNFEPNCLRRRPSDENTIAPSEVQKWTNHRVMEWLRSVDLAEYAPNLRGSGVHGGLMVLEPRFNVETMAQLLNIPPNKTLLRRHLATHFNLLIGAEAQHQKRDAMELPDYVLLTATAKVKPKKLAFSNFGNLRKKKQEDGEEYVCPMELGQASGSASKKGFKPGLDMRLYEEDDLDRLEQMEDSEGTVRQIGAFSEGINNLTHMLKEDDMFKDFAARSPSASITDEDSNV

This note sets out measurements from paper PMC8523714.

The target in one experiment is FLAG-CNAβ1 (human) (UniProt Q5F2F8). In words: affinity purification with mass spectrometry; FLAG-tagged CNAβ baits from HEK293 Flp-In T-REx lysates on anti-FLAG M2 magnetic beads, 2 h at 4 °C; label-free quantitative MS, SAINTexpress against FLAG-GFP controls, BFDR ≤ 1%.
Another experiment has as its target MYC-BirA*-CNAβ1 (human) (UniProt Q5F2F8). The experiment can be described thus: proximity labelling; BioID in HeLa cells: MYC-BirA*-CNAβ1 with HA-PI4KA and the EFR3B/TTC7B/FAM126A plasmid, 50 μM biotin for 16 h; streptavidin capture from RIPA lysate, immunoblot.

Take “FAM126A (Hyccin) (endogenous) (from UniProt Q9BYI3 1-521)”: the binding result with FLAG-CNAβ1 (human) was “binds”.

“Baculoviral IAP repeat-containing protein 6 (BIRC6/BRUCE) (from UniProt Q9NR09 1-4857)”: the binding result with FLAG-CNAβ1 (human) is on record as “binds”.

“Liprin-Beta 1 (PPFIBP1) (from UniProt Q86W92 1-1011)”: the binding result with FLAG-CNAβ1 (human) was “binds”.

With “FLAG-FAM126A^WT (from UniProt Q9BYI3 1-521)”, the binding entry with MYC-BirA*-CNAβ1 (human) is reported as “binds”.

On to HA-PI4KA (from UniProt P42356 1-2102), for which the binding entry with MYC-BirA*-CNAβ1 (human) is “binds”.

Turning to “PI4KA (PI4KIIIα) (endogenous) (from UniProt P42356 1-2102)”, in the experiment with FLAG-CNAβ1 (human), the binding entry was “binds”.

B1: Phosphorylase B kinase regulatory subunit (PHKB) (protein, UniProt Q93100 1-1093)
chain: MAGAAGLTAEVSWKVLERRARTKRSGSVYEPLKSINLPRPDNETLWDKLDHYYRIVKSTLLLYQSPTTGLFPTKTCGGDQKAKIQDSLYCAAGAWALALAYRRIDDDKGRTHELEHSAIKCMRGILYCYMRQADKVQQFKQDPRPTTCLHSVFNVHTGDELLSYEEYGHLQINAVSLYLLYLVEMISSGLQIIYNTDEVSFIQNLVFCVERVYRVPDFGVWERGSKYNNGSTELHSSSVGLAKAALEAINGFNLFGNQGCSWSVIFVDLDAHNRNRQTLCSLLPRESRSHNTDAALLPCISYPAFALDDEVLFSQTLDKVVRKLKGKYGFKRFLRDGYRTSLEDPNRCYYKPAEIKLFDGIECEFPIFFLYMMIDGVFRGNPKQVQEYQDLLTPVLHHTTEGYPVVPKYYYVPADFVEYEKNNPGSQKRFPSNCGRDGKLFLWGQALYIIAKLLADELISPKDIDPVQRYVPLKDQRNVSMRFSNQGPLENDLVVHVALIAESQRLQVFLNTYGIQTQTPQQVEPIQIWPQQELVKAYLQLGINEKLGLSGRPDRPIGCLGTSKIYRILGKTVVCYPIIFDLSDFYMSQDVFLLIDDIKNALQFIKQYWKMHGRPLFLVLIREDNIRGSRFNPILDMLAALKKGIIGGVKVHVDRLQTLISGAVVEQLDFLRISDTEELPEFKSFEELEPPKHSKVKRQSSTPSAPELGQQPDVNISEWKDKPTHEILQKLNDCSCLASQAILLGILLKREGPNFITKEGTVSDHIERVYRRAGSQKLWLAVRYGAAFTQKFSSSIAPHITTFLVHGKQVTLGAFGHEEEVISNPLSPRVIQNIIYYKCNTHDEREAVIQQELVIHIGWIISNNPELFSGMLKIRIGWIIHAMEYELQIRGGDKPALDLYQLSPSEVKQLLLDILQPQQNGRCWLNRRQIDGSLNRTPTGFYDRVWQILERTPNGIIVAGKHLPQQPTLSDMTMYEMNFSLLVEDTLGNIDQPQYRQIVVELLMVVSIVLERNPELEFQDKVDLDRLVKEAFNEFQKDQSRLKEIEKQDDMTSFYNTPPLGKRGTCSYLTKAVMNLLLEGEVKPNNDDPCLIS
For the molecule B1, the binding entry with FLAG-CNAβ1 (human) was “binds”.

B2: EFR3B (endogenous) (protein, UniProt Q9Y2G0 1-817)
chain: MYGVCGCCGALRPRYKRLVDNIFPEDPEDGLVKTNMEKLTFYALSAPEKLDRIGAYLSERLIRDVGRHRYGYVCIAMEALDQLLMACHCQSINLFVESFLKMVAKLLESEKPNLQILGTNSFVKFANIEEDTPSYHRSYDFFVSRFSEMCHSSHDDLEIKTKIRMSGIKGLQGVVRKTVNDELQANIWDPQHMDKIVPSLLFNLQHVEEAESRSPSPLQAPEKEKESPAELAERCLRELLGRAAFGNIKNAIKPVLIHLDNHSLWEPKVFAIRCFKIIMYSIQPQHSHLVIQQLLGHLDANSRSAATVRAGIVEVLSEAAVIAATGSVGPTVLEMFNTLLRQLRLSIDYALTGSYDGAVSLGTKIIKEHEERMFQEAVIKTVGSFASTLPTYQRSEVILFIMSKVPRPSLHQAVDTGRTGENRNRLTQIMLLKSLLQVSTGFQCNNMMSALPSNFLDRLLSTALMEDAEIRLFVLEILISFIDRHGNRHKFSTISTLSDISVLKLKVDKCSRQDTVFMKKHSQQLYRHIYLSCKEETNVQKHYEALYGLLALISIELANEEVVVDLIRLVLAVQDVAQVNEENLPVYNRCALYALGAAYLNLISQLTTVPAFCQHIHEVIETRKKEAPYMLPEDVFVERPRLSQNLDGVVIELLFRQSKISEVLGGSGYNSDRLCLPYIPQLTDEDRLSKRRSIGETISLQVEVESRNSPEKEERVPAEEITYETLKKAIVDSVAVEEQERERRRQVVEKFQKAPFEEIAAHCGARASLLQSKLNQIFEITIRPPPSPSGTITAAYGQPQNHSIPVYEMKFPDLCVY
As to B2, in the experiment with FLAG-CNAβ1 (human), the binding result is reported as “binds”.

B3: EFR3B-HA (protein, UniProt Q9Y2G0 1-817)
chain: MYGVCGCCGALRPRYKRLVDNIFPEDPEDGLVKTNMEKLTFYALSAPEKLDRIGAYLSERLIRDVGRHRYGYVCIAMEALDQLLMACHCQSINLFVESFLKMVAKLLESEKPNLQILGTNSFVKFANIEEDTPSYHRSYDFFVSRFSEMCHSSHDDLEIKTKIRMSGIKGLQGVVRKTVNDELQANIWDPQHMDKIVPSLLFNLQHVEEAESRSPSPLQAPEKEKESPAELAERCLRELLGRAAFGNIKNAIKPVLIHLDNHSLWEPKVFAIRCFKIIMYSIQPQHSHLVIQQLLGHLDANSRSAATVRAGIVEVLSEAAVIAATGSVGPTVLEMFNTLLRQLRLSIDYALTGSYDGAVSLGTKIIKEHEERMFQEAVIKTVGSFASTLPTYQRSEVILFIMSKVPRPSLHQAVDTGRTGENRNRLTQIMLLKSLLQVSTGFQCNNMMSALPSNFLDRLLSTALMEDAEIRLFVLEILISFIDRHGNRHKFSTISTLSDISVLKLKVDKCSRQDTVFMKKHSQQLYRHIYLSCKEETNVQKHYEALYGLLALISIELANEEVVVDLIRLVLAVQDVAQVNEENLPVYNRCALYALGAAYLNLISQLTTVPAFCQHIHEVIETRKKEAPYMLPEDVFVERPRLSQNLDGVVIELLFRQSKISEVLGGSGYNSDRLCLPYIPQLTDEDRLSKRRSIGETISLQVEVESRNSPEKEERVPAEEITYETLKKAIVDSVAVEEQERERRRQVVEKFQKAPFEEIAAHCGARASLLQSKLNQIFEITIRPPPSPSGTITAAYGQPQNHSIPVYEMKFPDLCVY
B3: in the experiment with MYC-BirA*-CNAβ1 (human), the binding result was “binds”.

B4: SH3 and BAR domain-containing protein endophilin B2 (SH3GLB2) (protein, UniProt Q9NR46 1-395)
chain: MDFNMKKLASDAGIFFTRAVQFTEEKFGQAEKTELDAHFENLLARADSTKNWTEKILRQTEVLLQPNPSARVEEFLYEKLDRKVPSRVTNGELLAQYMADAASELGPTTPYGKTLIKVAEAEKQLGAAERDFIHTASISFLTPLRNFLEGDWKTISKERRLLQNRRLDLDACKARLKKAKAAEAKATTVPDFQETRPRNYILSASASALWNDEVDKAEQELRVAQTEFDRQAEVTRLLLEGISSTHVNHLRCLHEFVKSQTTYYAQCYRHMLDLQKQLGRFPGTFVGTTEPASPPLSSTSPTTAAATMPVVPSVASLAPPGEASLCLEEVAPPASGTRKARVLYDYEAADSSELALLADELITVYSLPGMDPDWLIGERGNKKGKVPVTYLELLS
As for B4, in the experiment with FLAG-CNAβ1 (human), the binding entry is given as “binds”.
